PubChem BioAssay AID504804 – Drosophila RNAi Screening Center – 2011
In all, the deposit lists about 19,000 reagents; this is an unselected part of those with a known target gene and a result. Over the whole deposit, 47 (0.25%) got an active call. 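Signals are raw, not normalised; exact z-scores behind calls not deposited; actives needed confirmation, so some wells reaching 2 SD are inactive.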 A plus sign joins genes that one reagent is predicted to hit. Reagent sequences are not shown.

- Test: 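dsRNAs that improve Kc cell survival under doxorubicin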 (primary screen)
- Cell system: Drosophila Kc cells
- Knock-down reagent: long dsRNA against Drosophila genes, 0.5 µg dsRNA per well
- Timing: 96 h (48 h knock-down, then 48 h drug)
- Conditions: doxorubicin 5 µg/ml for 48 h, added 48 h after dsRNA
- Detection: 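Viability measured as cellular ATP by luminescence after 48 h knock-down then 48 h doxorubicin at 5 µg/ml; unnormalised plate counts for each replicate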
- Reading the numbers: raw ATP luminescence: higher = more viable cells, protection from doxorubicin
- Rule for the call: 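Active when both duplicate wells lie at least 2 SD above the plate mean and protection is confirmed by rescreening and independent dsRNAs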

| Gene | DRSC id | SD above plate mean | raw ATP luminescence, replicate 1 | raw ATP luminescence, replicate 2 | Outcome |
| --- | --- | --- | --- | --- | --- |
| CG13743 | DRSC05139 | – | 1.29e5 | 1.23e5 | inactive |
| CG13743 | DRSC06414 | – | 40413 | 56477 | inactive |
| TotM | DRSC02355 | – | 24773 | 26387 | inactive |
| Rab9Db + Rab9D + Rab9E | DRSC17656 | – | 1.73e5 | 2.08e5 | inactive |
| CG11786 | DRSC14389 | – | 69760 | 56350 | inactive |
| Ugt36F1 | DRSC02601 | – | 63023 | 56830 | inactive |
| Naxe | DRSC18251 | – | 3.16e5 | 3.32e5 | inactive |
| Neto | DRSC18982 | – | 2.37e5 | 2.46e5 | inactive |
| Neto | DRSC19716 | – | 3.97e5 | 3.17e5 | inactive |
| Neto | DRSC19717 | – | 3.37e5 | 3.77e5 | inactive |
| CG11349 | DRSC08179 | – | 1.19e5 | 73247 | inactive |
| CG15403 | DRSC00417 | – | 23697 | 31000 | inactive |
| CG8236 | DRSC16399 | – | 63810 | 62593 | inactive |
| CG12209 | DRSC06119 | – | 53020 | 71400 | inactive |
| cl | DRSC02118 | – | 1.18e5 | 81630 | inactive |
| trio | DRSC07928 | – | 1.04e5 | 1.23e5 | inactive |
| trio | DRSC08527 | – | 53510 | 53737 | inactive |
| Slbp | DRSC16863 | – | 36670 | 41280 | inactive |
| BBS4 | DRSC06352 | – | 2.63e5 | 2.52e5 | inactive |
| santa-maria | DRSC00994 | – | 3.38e5 | 2.62e5 | inactive |
| santa-maria | DRSC02180 | – | 1.17e5 | 65480 | inactive |
| Ldsdh1 | DRSC18219 | – | 49600 | 48110 | inactive |
| Zmynd10 | DRSC09826 | – | 81623 | 86047 | inactive |
| Dph4 | DRSC12318 | – | 71553 | 68563 | inactive |
| CG12546 + CG14452 | DRSC11709 | – | 53913 | 48623 | inactive |
| Cog1 | DRSC15661 | – | 60837 | 21493 | inactive |
| cysu | DRSC15902 | – | 70890 | 55460 | inactive |
| Gr97a | DRSC13802 | – | 2.29e5 | 2.10e5 | inactive |
| wrd | DRSC16337 | – | 18290 | 21300 | inactive |
| wrd | DRSC16344 | – | 52980 | 72030 | inactive |
| CG46298 | DRSC06222 | – | 48830 | 66667 | inactive |
| CG8677 | DRSC03107 | – | 61940 | 59307 | inactive |
| ppk23 | DRSC20110 | – | 2.87e5 | 3.55e5 | inactive |
| kuk | DRSC15730 | – | 41650 | 42890 | inactive |
| Nf-YA | DRSC10385 | – | 62633 | 40917 | inactive |
| CG12986 | DRSC19506 | – | 3.50e5 | 3.75e5 | inactive |
| CG32260 | DRSC08084 | – | 1.72e5 | 1.26e5 | inactive |
| CG3634 | DRSC11747 | – | 63587 | 61693 | inactive |
| CG14630 | DRSC18166 | – | 66440 | 75970 | inactive |
| CG14630 | DRSC18653 | – | 56170 | 59500 | inactive |
| CG17191 | DRSC15185 | – | 74200 | 47290 | inactive |
| CG11588 | DRSC09145 | – | 1.64e5 | 1.91e5 | inactive |
| CG11588 | DRSC09846 | – | 86667 | 73460 | inactive |
| Gs2 | DRSC20250 | – | 2.93e5 | 2.76e5 | inactive |
| Mmp2 | DRSC06698 | – | 41710 | 68687 | inactive |
| CG7264 | DRSC10793 | – | 82310 | 80593 | inactive |
| CG11899 | DRSC16656 | – | 32990 | 32480 | inactive |
| CG2076 | DRSC19832 | – | 2.80e5 | 2.90e5 | inactive |
| CG14669 | DRSC12065 | – | 66963 | 24953 | inactive |
| CG14669 | DRSC12067 | – | 77797 | 60377 | inactive |
| CG14669 | DRSC12068 | – | 69663 | 66540 | inactive |
| CG14669 | DRSC12255 | – | 68217 | 56940 | inactive |
| Tsp66A + CG42661 + CG42660 | DRSC10233 | – | 74950 | 82910 | inactive |
| Roc1a | DRSC18483 | – | 48750 | 19740 | inactive |
| CG13625 | DRSC14627 | – | 41337 | 38440 | inactive |
| Pi3K68D | DRSC11253 | – | 54277 | 40310 | inactive |
| Tsf2 | DRSC09751 | – | 47703 | 47187 | inactive |
| CG15047 | DRSC19623 | – | 2.38e5 | 2.20e5 | inactive |
| Gadd45 | DRSC06033 | – | 40067 | 78470 | inactive |
| CG7330 | DRSC10813 | – | 77257 | 1.17e5 | inactive |
| CG7330 | DRSC10814 | – | 93407 | 73327 | inactive |
| CG14722 | DRSC14944 | – | 66223 | 30777 | inactive |
| CG1674 | DRSC17142 | – | 52400 | 55400 | inactive |
| Rh6 | DRSC16823 | – | 87010 | 58760 | inactive |
| CG32720 | DRSC17529 | – | 1.54e5 | 1.74e5 | inactive |
| CG30471 | DRSC07096 | – | 56413 | 74773 | inactive |
| CG15412 | DRSC00427 | – | 22853 | 29950 | inactive |
| CG7646 | DRSC11232 | – | 64790 | 59490 | inactive |
| CG13010 | DRSC19529 | – | 3.40e5 | 2.76e5 | inactive |
| veli | DRSC16276 | – | 57160 | 54680 | inactive |
| CG6244 | DRSC10609 | – | 54433 | 47470 | inactive |
| CG7519 | DRSC11834 | – | 61353 | 62087 | inactive |
| CG10516 | DRSC09738 | – | 38457 | 44467 | inactive |
| botv | DRSC05949 | – | 69537 | 51363 | inactive |
| Fad2 | DRSC11165 | – | 70183 | 61577 | inactive |
| neur | DRSC17013 | at least 2 SD above plate mean | 88603 | 46077 | active |
| CG33177 | DRSC19949 | – | 4.22e5 | 3.69e5 | inactive |
| Osi19 | DRSC12569 | – | 60870 | 49503 | inactive |
| CG6685 | DRSC10695 | – | 76697 | 64190 | inactive |
| ps | DRSC15149 | – | 53653 | 54283 | inactive |
| ps | DRSC15151 | – | 45213 | 38803 | inactive |
| ps | DRSC15152 | – | 28807 | 29393 | inactive |
| ps | DRSC16388 | – | 54003 | 57833 | inactive |
| Mal-A1 | DRSC07461 | – | 51647 | 65417 | inactive |

Records above with an active call, once more:
| Gene | DRSC id | SD above plate mean | raw ATP luminescence, replicate 1 | raw ATP luminescence, replicate 2 | Outcome |
| --- | --- | --- | --- | --- | --- |
| neur | DRSC17013 | at least 2 SD above plate mean | 88603 | 46077 | active |
